Source: patent US20180311369A1 (WRIGHT STATE UNIVERSITY, published 2018)
Results are given in words; binding and its absence hold for the method and conditions named. Some binding calls cover weakened binding; strength is not graded here.

Protein sequences, listed by entry. Tags and fused reporters are not part of them. Lines headed by an entry give the natural chain unless they say otherwise; changes in a name come on top.
UniProt Q4L1J4: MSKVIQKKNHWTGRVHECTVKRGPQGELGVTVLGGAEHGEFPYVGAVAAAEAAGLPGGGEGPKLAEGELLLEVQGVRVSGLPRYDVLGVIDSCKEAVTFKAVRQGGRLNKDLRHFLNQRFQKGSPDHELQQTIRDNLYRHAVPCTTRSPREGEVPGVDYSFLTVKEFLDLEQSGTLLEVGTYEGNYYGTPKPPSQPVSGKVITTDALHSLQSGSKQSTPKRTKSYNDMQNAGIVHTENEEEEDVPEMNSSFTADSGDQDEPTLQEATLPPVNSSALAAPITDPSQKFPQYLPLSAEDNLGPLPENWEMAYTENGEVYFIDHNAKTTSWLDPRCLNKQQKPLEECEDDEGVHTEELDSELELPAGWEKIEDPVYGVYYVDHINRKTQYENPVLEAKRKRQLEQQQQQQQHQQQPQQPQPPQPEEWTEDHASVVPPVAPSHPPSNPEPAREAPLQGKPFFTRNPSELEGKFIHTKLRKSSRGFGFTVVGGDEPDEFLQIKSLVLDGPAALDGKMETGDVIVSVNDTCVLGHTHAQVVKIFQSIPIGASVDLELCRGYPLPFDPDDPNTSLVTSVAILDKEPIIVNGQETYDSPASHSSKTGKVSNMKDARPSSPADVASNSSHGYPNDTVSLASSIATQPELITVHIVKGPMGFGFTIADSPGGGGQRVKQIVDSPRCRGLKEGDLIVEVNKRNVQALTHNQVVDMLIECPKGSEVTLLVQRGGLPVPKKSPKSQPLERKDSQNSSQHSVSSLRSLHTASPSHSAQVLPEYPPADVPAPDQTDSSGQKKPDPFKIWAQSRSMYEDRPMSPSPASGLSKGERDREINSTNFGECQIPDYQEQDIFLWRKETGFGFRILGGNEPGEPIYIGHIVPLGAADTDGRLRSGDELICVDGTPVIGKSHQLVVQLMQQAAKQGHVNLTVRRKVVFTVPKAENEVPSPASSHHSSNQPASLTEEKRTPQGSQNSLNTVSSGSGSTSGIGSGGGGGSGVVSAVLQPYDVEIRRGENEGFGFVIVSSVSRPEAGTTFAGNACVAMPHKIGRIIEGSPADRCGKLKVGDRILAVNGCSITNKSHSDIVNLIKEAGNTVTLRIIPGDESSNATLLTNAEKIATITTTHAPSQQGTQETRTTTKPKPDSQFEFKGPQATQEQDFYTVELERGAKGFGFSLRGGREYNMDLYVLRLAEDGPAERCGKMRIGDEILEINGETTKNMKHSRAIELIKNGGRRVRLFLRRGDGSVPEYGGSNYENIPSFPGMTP

Experiments:
[1] = target: MAGI-1 PDZ1 domain (Rattus norvegicus (Rat)) (UniProt Q4L1J4); test: ligand binding assay (figure legend)
[2] = target: MAGI-1 PDZ3 domain (Rattus norvegicus (Rat)) (UniProt Q4L1J4); test: ligand binding assay (figure legend)

| Binder | binding [1] | binding [2] |
| --- | --- | --- |
| GRKKRRQRRRPPQGGKKKETLV (also called TAT-PDZ1 peptide) [TAT-NET1] | binds |  |
| GRKKRRQRRRPPQAQSQAGSLV (also called TAT-PDZ3 peptide) [TAT-ESAM] |  | binds |
| GRKKRRQRRRPPQSRTRRETQL (also called TAT-E6) [TAT-HPV E6] | binds |  |
